In assay [1] the target is T1, Pdcd7-Myc (UniProt Q9WTY1).
T1 sequence: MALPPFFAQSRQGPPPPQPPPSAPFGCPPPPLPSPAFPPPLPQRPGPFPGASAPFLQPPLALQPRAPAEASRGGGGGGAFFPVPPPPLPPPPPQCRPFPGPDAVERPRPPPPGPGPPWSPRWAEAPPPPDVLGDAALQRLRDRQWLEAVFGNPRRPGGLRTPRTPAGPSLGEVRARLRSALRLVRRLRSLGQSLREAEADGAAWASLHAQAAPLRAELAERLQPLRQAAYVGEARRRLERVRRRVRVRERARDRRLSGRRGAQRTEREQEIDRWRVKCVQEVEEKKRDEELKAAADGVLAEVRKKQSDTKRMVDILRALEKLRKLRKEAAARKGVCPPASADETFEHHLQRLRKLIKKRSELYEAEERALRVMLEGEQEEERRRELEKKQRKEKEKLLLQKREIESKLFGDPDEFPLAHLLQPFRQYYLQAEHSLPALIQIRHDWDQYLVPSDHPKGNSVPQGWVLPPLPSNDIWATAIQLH
Kind of assay: co-IP; as the Pdcd7-Myc immunoprecipitation, but lysate incubated with 50 ug/ml RNase A at 37 C for 15 min before pre-clearing; immunoblot.

Chains of the proteins cited; added tags and fusions are not shown.
UniProt O75533: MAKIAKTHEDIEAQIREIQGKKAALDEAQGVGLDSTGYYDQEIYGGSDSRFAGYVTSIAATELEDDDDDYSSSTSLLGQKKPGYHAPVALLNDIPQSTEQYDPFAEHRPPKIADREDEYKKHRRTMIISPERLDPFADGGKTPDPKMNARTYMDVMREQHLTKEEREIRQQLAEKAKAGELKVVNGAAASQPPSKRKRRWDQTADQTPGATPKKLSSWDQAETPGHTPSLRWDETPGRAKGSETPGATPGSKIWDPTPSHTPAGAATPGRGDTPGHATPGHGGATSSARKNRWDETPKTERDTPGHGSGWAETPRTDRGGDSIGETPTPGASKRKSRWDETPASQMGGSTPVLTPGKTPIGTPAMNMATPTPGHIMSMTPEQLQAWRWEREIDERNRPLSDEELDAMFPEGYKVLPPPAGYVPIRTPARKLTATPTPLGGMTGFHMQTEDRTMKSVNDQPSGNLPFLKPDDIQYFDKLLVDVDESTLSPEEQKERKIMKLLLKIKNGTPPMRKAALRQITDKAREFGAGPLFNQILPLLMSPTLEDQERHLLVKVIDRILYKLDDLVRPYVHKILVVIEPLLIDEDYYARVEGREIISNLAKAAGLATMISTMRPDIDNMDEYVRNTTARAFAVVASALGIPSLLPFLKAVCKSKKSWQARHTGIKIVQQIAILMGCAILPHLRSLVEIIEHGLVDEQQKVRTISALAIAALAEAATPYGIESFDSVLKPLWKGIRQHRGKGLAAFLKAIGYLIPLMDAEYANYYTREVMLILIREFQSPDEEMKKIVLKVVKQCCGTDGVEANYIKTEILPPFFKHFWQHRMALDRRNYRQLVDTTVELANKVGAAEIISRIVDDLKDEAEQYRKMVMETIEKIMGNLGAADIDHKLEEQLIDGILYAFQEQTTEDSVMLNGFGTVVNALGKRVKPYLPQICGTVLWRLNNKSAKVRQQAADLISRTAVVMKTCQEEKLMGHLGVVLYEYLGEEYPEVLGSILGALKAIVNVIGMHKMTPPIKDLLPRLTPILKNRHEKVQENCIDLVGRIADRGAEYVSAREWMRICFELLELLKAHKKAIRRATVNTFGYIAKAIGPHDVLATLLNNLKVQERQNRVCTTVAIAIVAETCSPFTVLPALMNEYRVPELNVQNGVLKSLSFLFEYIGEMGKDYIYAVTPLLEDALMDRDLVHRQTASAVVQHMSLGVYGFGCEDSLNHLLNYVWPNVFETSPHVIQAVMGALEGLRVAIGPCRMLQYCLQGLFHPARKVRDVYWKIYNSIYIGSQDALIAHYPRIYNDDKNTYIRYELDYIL
UniProt Q07955: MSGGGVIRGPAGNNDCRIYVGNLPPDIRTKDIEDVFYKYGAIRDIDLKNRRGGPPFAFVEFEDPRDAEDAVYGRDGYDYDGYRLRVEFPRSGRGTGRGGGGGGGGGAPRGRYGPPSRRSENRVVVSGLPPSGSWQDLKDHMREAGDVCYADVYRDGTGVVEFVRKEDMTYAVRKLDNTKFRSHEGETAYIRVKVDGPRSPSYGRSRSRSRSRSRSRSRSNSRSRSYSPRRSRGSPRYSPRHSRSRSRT

The target of assay [2] is T1, Pdcd7-Myc. Kind of assay: co-IP; Pdcd7-Myc overexpressed in HEK293T cells, cells UV cross-linked (365 nm), modified RIPA lysate, anti-Myc immunoprecipitation on protein G Dynabeads, immunoblot for endogenous major spliceosome proteins.
The target in assay [3] is T2, U2AF1 (human (endogenous in HEK293T)) (UniProt Q01081).
T2 sequence: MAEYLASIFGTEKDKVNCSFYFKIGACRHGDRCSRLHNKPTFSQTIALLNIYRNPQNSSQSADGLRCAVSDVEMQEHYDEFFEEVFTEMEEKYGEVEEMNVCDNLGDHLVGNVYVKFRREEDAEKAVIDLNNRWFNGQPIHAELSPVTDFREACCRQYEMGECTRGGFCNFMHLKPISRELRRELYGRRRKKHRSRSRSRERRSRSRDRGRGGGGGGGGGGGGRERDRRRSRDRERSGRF
Nature of the assay: co-IP; reciprocal IP: nuclear extract of untreated HEK293T cells, immunoprecipitation of endogenous U2AF1 (rabbit anti-U2AF35), immunoblot for PDCD7.

Results are given in words; binding and its absence hold for the method and conditions named. Binding seen in cells or lysates may run through a third protein. Some entries that bind do so weakly or less than the wild type. For some of these results: Where a sequence is shown, tags or fusion partners need not be part of it.

Take SF3B1 (from UniProt O75533 1-1304): the binding entry in the assay with Pdcd7-Myc [1] and with Pdcd7-Myc [2] was “binds” in each case. With SRSF1 (from UniProt Q07955 1-248), in the assay with Pdcd7-Myc [2], the binding result is “binds”.

B1: U2AF1 (protein, UniProt Q01081 1-240)
chain: MAEYLASIFGTEKDKVNCSFYFKIGACRHGDRCSRLHNKPTFSQTIALLNIYRNPQNSSQSADGLRCAVSDVEMQEHYDEFFEEVFTEMEEKYGEVEEMNVCDNLGDHLVGNVYVKFRREEDAEKAVIDLNNRWFNGQPIHAELSPVTDFREACCRQYEMGECTRGGFCNFMHLKPISRELRRELYGRRRKKHRSRSRSRERRSRSRDRGRGGGGGGGGGGGGRERDRRRSRDRERSGRF
As to B1, the binding entry with Pdcd7-Myc [1] and with Pdcd7-Myc [2] was “binds” each time.

B2: endogenous PDCD7 (protein, UniProt Q8N8D1 1-485)
chain: MALPPFFGQGRPGPPPPQPPPPAPFGCPPPPLPSPAFPPPLPQRPGPFPGASAPFLQPPLALQPRASAEASRGGGGAGAFYPVPPPPLPPPPPQCRPFPGTDAGERPRPPPPGPGPPWSPRWPEAPPPPADVLGDAALQRLRDRQWLEAVFGTPRRAGCPVPQRTHAGPSLGEVRARLLRALRLVRRLRGLSQALREAEADGAAWVLLYSQTAPLRAELAERLQPLTQAAYVGEARRRLERVRRRRLRLRERAREREAEREAEAARAVEREQEIDRWRVKCVQEVEEKKREQELKAAADGVLSEVRKKQADTKRMVDILRALEKLRKLRKEAAARKGVCPPASADETFTHHLQRLRKLIKKRSELYEAEERALRVMLEGEQEEERKRELEKKQRKEKEKILLQKREIESKLFGDPDEFPLAHLLEPFRQYYLQAEHSLPALIQIRHDWDQYLVPSDHPKGNFVPQGWVLPPLPSNDIWATAVKLH
Regarding B2, in assay [3], the binding entry is “binds”.

B3: SNRNP40 (protein, UniProt Q96DI7 1-357)
chain: MIEQQKRKGPELPLVPVKRQRHELLLGAGSGPGAGQQQATPGALLQAGPPRCSSLQAPIMLLSGHEGEVYCCKFHPNGSTLASAGFDRLILLWNVYGDCDNYATLKGHSGAVMELHYNTDGSMLFSASTDKTVAVWDSETGERVKRLKGHTSFVNSCYPARRGPQLVCTGSDDGTVKLWDIRKKAAIQTFQNTYQVLAVTFNDTSDQIISGGIDNDIKVWDLRQNKLTYTMRGHADSVTGLSLSSEGSYLLSNAMDNTVRVWDVRPFAPKERCVKIFQGNVHNFEKNLLRCSWSPDGSKIAAGSADRFVYVWDTTSRRILYKLPGHAGSINEVAFHPDEPIIISASSDKRLYMGEIQ
Consider B3, for which, in the assay with Pdcd7-Myc [2], the binding result was “binds”.

Values taken from publication PMC8034651.
